# Test results reported in PubChem BioAssay AID1117319 (Southern Research Institute, 2015).
# The chains behind the UniProt entries cited, without tags or fusion partners. Where a name states a change or a piece, a line headed by the entry shows the natural chain unless it says otherwise.
# UniProt P69720: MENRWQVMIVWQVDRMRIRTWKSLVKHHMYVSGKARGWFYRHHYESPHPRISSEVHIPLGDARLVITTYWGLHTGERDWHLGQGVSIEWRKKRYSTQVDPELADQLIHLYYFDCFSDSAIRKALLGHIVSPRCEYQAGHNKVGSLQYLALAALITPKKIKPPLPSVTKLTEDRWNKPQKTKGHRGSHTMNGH
# UniProt P69721: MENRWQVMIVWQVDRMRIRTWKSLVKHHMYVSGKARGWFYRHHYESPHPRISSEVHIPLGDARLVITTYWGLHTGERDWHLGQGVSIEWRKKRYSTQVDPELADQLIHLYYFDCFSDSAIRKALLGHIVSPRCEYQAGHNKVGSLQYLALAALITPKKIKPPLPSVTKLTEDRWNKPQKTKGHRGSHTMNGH
# UniProt P69722: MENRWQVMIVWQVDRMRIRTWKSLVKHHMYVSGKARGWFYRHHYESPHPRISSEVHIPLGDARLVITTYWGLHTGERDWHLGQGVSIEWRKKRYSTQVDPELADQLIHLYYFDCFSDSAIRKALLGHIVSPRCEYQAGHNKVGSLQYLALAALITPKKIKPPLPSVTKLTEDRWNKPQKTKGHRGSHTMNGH
# UniProt P69723: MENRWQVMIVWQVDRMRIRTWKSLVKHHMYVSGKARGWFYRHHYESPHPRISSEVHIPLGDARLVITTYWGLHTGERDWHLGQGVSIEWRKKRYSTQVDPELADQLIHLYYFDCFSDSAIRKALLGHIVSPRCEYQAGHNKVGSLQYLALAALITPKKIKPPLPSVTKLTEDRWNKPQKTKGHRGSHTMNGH
# UniProt Q9HC16: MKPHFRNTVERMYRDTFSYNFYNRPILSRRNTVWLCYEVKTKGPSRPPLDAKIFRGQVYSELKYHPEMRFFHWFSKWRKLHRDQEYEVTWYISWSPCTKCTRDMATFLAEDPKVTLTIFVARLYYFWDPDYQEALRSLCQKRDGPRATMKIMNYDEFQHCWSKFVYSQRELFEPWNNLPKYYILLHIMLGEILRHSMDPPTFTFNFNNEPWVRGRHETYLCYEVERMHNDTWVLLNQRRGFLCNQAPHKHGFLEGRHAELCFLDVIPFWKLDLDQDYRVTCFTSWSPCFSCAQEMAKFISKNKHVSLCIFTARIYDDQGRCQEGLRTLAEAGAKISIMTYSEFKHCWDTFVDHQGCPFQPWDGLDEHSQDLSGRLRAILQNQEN
# Hit rate of the full screen: of about 260,000 compounds, about 1,500 (0.58%) were called active. The inconclusive results got no clear call from the source; some entries with a clear call stand among them for comparison.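 How the source made its calls: active means inhibition above a set limit at one or more doses, reproduced on every date tested; inconclusive means results disagree between test dates, or hit never tested in dose response; inactive means the rest.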
# Molecular target: Virion infectivity factor (Human immunodeficiency virus type 1 group M subtype B (isolate BH10)) + Virion infectivity factor (Human immunodeficiency virus type 1 group M subtype B (isolate BRU/LAI)) + Virion infectivity factor (Human immunodeficiency virus type 1 group M subtype B (isolate PCV12)) + Virion infectivity factor (Human immunodeficiency virus type 1 group M subtype B (isolate HXB2)) + DNA dC->dU-editing enzyme APOBEC-3G (Homo sapiens) (UniProt P69720+P69721+P69722+P69723+Q9HC16)
# Test: inhibitors of Vif binding to APOBEC3G peptide, primary screen, biochemical, TR-FRET, GST-Vif 1-94, biotin-A3G peptide, dose response retest (AID 1117319);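 further: Vif residues 1-94 fused to GST binding biotinylated APOBEC3G peptide 110-148; 0% = full assay without inhibitor and 100% = GST in place of GST-Vif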
# Conditions: hits give high values
row,SMILES,inhibition
1,CCn1c(SCC(=O)c2ccccc2)nc2ccccc2c1=O,inconclusive: 60.7%
2,O=C(N1CCCCC1)N1CCN(C(=O)N(c2ccccc2)c2ccccc2)CC1,inconclusive: 58.7%
3,COC(=O)c1cccc(-n2cnnn2)c1,inactive: 22.2%
4,CC(=O)c1cnc(N(C)C)s1,inactive: -3.71%
5,CCOC(=O)c1ccc(S(=O)(=O)N2CCN(S(=O)(=O)CC)CC2)cc1,inconclusive: 55.8%
6,CC(N=Cc1ccccc1O)c1ccccc1 (centres undefined),inconclusive: 48.5%
7,COc1ccc2nc(/C(C#N)=C\c3ccc(Oc4ccc([N+](=O)[O-])cn4)cc3)[nH]c2c1,inconclusive: 43.8%
8,CCOC(=O)c1c(C)n(O)c2ccc(Cl)cc2c1=O,inconclusive: 50.8%
9,O=C(Cn1nc(C(=O)O)c2ccccc2c1=O)NCc1ccco1,inconclusive: 44.9%
10,O=C(O)CCn1c(SCc2cccc3ccccc23)nc2ccccc21,inconclusive: 62%
11,CCCCn1c(N)c(C(=S)NC(=O)CC(C)(C)C)c(=O)n(C)c1=O,inconclusive: 46.4%
12,CCOC(=O)C1C(=O)C=C(C)C(C(=O)OCC)C1c1ccc(OC)cc1 (centres undefined),inconclusive: 35.9%
13,COc1ccccc1C(c1nnnn1Cc1ccco1)N1CCN(c2cccc(C)c2C)CC1 (centres undefined),inactive: 25.8%
14,COCCNC(=S)NNC(=O)c1ccco1,inconclusive: 33%
15,COc1cc(NC(=O)CCc2c(C)nc3nc(C)nn3c2C)cc(OC)c1,inconclusive: 42%
16,c1cc2ccc3ccc(CN4CCOCC4)c4ccc(c1)c2c34,inconclusive: 53.9%
17,O=[N+]([O-])c1ccc2nc(CN3CCCCC3)[nH]c2c1,inactive: -2.67%
18,CC(=O)NCc1ccc(C(=O)CSc2nnc(-c3ccncc3)n2Cc2ccccc2)o1,inconclusive: 41.3%
19,CCn1nnnc1SCC(=O)N1c2ccccc2CCc2ccccc21,inconclusive: 35.8%
20,O=C(CBr)N1CCc2ccccc2C(c2ccccc2)C1 (centres undefined),inconclusive: 35.6%

row,SMILES,inhibition
1,COc1ccc(N2CCN(C(=O)CSc3ncn[nH]3)CC2)cc1,inactive: 7.54%
2,CCOC(=O)Cn1nnnc1C(CC)N(Cc1cc2ccc(C)cc2[nH]c1=O)C1CCCC1 (centres undefined),inconclusive: 40.2%
3,COc1ccc(CCN2CCCC(CN(C)C(=O)c3cc(C)oc3C)C2)cc1 (centres undefined),inconclusive: 34.2%
4,Cc1cnn(C(=S)NCc2ccc(Cl)cc2)c1,inconclusive: 40.4%
5,O=C(Cn1cnc2ccccc21)Nc1cc(C(F)(F)F)ccc1N1CCOCC1,inconclusive: 40.6%
6,CCCCNC(=O)c1cc2nc3c(c(C(F)(F)F)n2n1)CCc1ccccc1-3,inconclusive: 34.7%
7,Clc1cccc(C2=NOC(c3nnc(-c4ccccc4)o3)C2)c1 (centres undefined),inactive: -9.96%
8,O=C(Nc1nc2ccccc2s1)c1ccc2c(c1)S(=O)(=O)c1ccccc1C2=O,inactive: 28.5%
9,CC(=O)Nc1cccc(N(C)C)c1,inactive: 6.55%
10,CN(CCCNC(=O)CN1C(=O)CC(C)(C)S(=O)(=O)c2ccccc21)C1CCCCC1,inconclusive: 54.4%
11,CCCCn1c(CNC(=O)C(C)(C)C)nc2ccccc21,inconclusive: 6.8%
12,O=C(NCc1ccccc1)c1ccc(-c2ccccc2C(F)(F)F)o1,inconclusive: 35.3%
13,Cc1ccc2nc(NCc3ccc(F)cc3)c3nncn3c2c1,inconclusive: 41.5%
14,CCOC(=O)c1ccc(N2C(=O)C3C(C2=O)C(C(=O)c2ccc(Cl)cc2)N2CCCC32)cc1 (centres undefined),inconclusive: 38%
15,CCn1cc(/C=N/NS(=O)(=O)c2ccc(C)cc2)c(C)n1,inconclusive: 28.9%
16,CC(C)CC(NS(=O)(=O)c1cc(C(=O)O)ccc1Cl)C(=O)O (centres undefined),inconclusive: 39%
17,Cc1ccc(/C(O)=C/c2nc3cc(C)ccc3oc2=O)cc1,inconclusive: 43%
18,Cc1noc(C)c1COC(=O)c1ccc2c(c1)OCCO2,inconclusive: 37.8%
19,O=C(NCCNCc1ccccn1)c1ccco1,inconclusive: 35.2%
20,CCC1CCCCN1CC(C)(C)NS(=O)(=O)c1ccccc1 (centres undefined),inconclusive: 55.9%

# Another view of part of the listing above:
row	SMILES	inhibition
6	CC(N=Cc1ccccc1O)c1ccccc1 (centres undefined)	inconclusive: 48.5%
7	COc1ccc2nc(/C(C#N)=C\c3ccc(Oc4ccc([N+](=O)[O-])cn4)cc3)[nH]c2c1	inconclusive: 43.8%
8	CCOC(=O)c1c(C)n(O)c2ccc(Cl)cc2c1=O	inconclusive: 50.8%
9	O=C(Cn1nc(C(=O)O)c2ccccc2c1=O)NCc1ccco1	inconclusive: 44.9%
10	O=C(O)CCn1c(SCc2cccc3ccccc23)nc2ccccc21	inconclusive: 62%

# (list continues)

row,SMILES,inhibition
1,COc1cc(NC(=O)CCCn2c(=S)[nH]c3ccccc3c2=O)cc(OC)c1OC,inconclusive: 51.8%
2,COc1cc(/C=N\Nc2cc(=O)n(C)c(=O)n2C)ccc1O,inconclusive: 35.5%
3,Cc1cccc(/C=N/NC(=O)c2cc(-c3cccnc3)nc3c2c(C)nn3-c2ccccc2)c1,inconclusive: 48.9%
4,Cc1cc(C(=O)COC(=O)CN(C)S(=O)(=O)c2ccc(Cl)cc2)c(C)n1CC1CCCO1 (centres undefined),inconclusive: 56.2%
5,COc1cnc(-c2ccccn2)[nH]c1=O,inactive: 2.61%
6,Cc1ccccc1Nc1nnc(SCc2nc3ccccc3c(=O)[nH]2)s1,inconclusive: 41.4%
7,O=C(NNC(=O)C1[C@H]2CCCC[C@@H]12)c1ccc(=O)oc1 (some centres undefined),inconclusive: 56.4%
8,O=S(=O)(c1cccc2nsnc12)N1CCN(C/C=C/c2ccccc2)CC1,inconclusive: 34.5%
9,CC1(C)CC(=O)C=C(Nc2ccccc2)C1,inconclusive: 44.8%
10,NC(=S)N/N=C/c1ccc(-c2cc(Cl)c(Cl)cc2Cl)o1,inconclusive: 39.6%
11,O=[N+]([O-])/C(C(Cl)=C(Cl)Cl)=C1\Nc2ccccc2O1,inconclusive: 41.3%
12,COc1ccccc1-n1c(SCC(=O)Nc2cccc(C)c2)nc2c(c1=O)SCC2,inconclusive: 38.9%
13,Cc1sc2ncnc(NCc3ccco3)c2c1C,inactive: 23.1%
14,CCN(C(=O)COC(=O)CCc1ccccc1)c1ccccc1,inconclusive: 37%
15,Cc1ccc(SC(CC(=O)c2ccc(C)cc2)C(=O)O)cc1 (centres undefined),inconclusive: 28.2%
16,O=C(Nc1ncc(S(=O)(=O)c2ccc([N+](=O)[O-])cc2)s1)c1ccc2ccccc2c1,inconclusive: 43.4%
17,CCOC(=O)Cc1cc(=O)n2[nH]c(-c3ccccc3)cc2n1,inactive: 3.98%
18,O=C(CCC1CCCN(C2C3CC4CC(C3)CC2C4)C1)NCc1ccc(F)c(F)c1 (centres undefined),inconclusive: 45.6%
19,Cc1[nH]n2c(=O)cc(C(C)(C)C)nc2c1-c1ccccc1,inconclusive: 60.6%
